Where a name gives a salt, the structure may show the parent alone. This is one part of the list. Most values come without repeats; read them as rough.

The assay relates to M249R (matched melanoma line resistant to BRAF inhibitors). The assay is described as follows: reduction in cell viability relative to untreated/vehicle; higher = more growth inhibition. As to conditions: 200 nM; 72 h.
As for `Cc1ccc(S(=O)(=O)OCC(=O)Nc2ccc(C(=O)O)c(O)c2)cc1`, the “reduction in cell viability” value was < 0%.

Take `Clc1ccc(C2(c3ccc(-c4cn[nH]c4)cc3)CCNCC2)cc1`: the “reduction in cell viability” value is < 0%.

As for `CC(=O)O[C@@H]1[C@@H](OC(C)=O)[C@@H](O)[C@H](Oc2c(-c3ccc(O)cc3)oc3cc(O)cc(O)c3c2=O)O[C@H]1C`, the “reduction in cell viability” value was < 0%.

Consider `CC(C)(O)CC(=O)NCCn1ccc2ncnc(Nc3ccc(Oc4cccc(C(F)(F)F)c4)c(Cl)c3)c21`, for which the “reduction in cell viability” value was < 0%.

On to `NS(=O)(=O)c1cc2c(cc1Cl)NCNS2(=O)=O` [Hydrochlorothiazide], for which the “reduction in cell viability” value came out at 11.8%.

`C[C@@H]1COC(Nc2ccc3ncnc(Nc4ccc(OCc5nccs5)c(Cl)c4)c3c2)=N1` [Varlitinib tosylate]: the “reduction in cell viability” value was < 0%.

In the case of `N#C[C@@H]1C[C@@H]2C[C@@H]2N1C(=O)[C@@H](N)C12CC3CC(CC(O)(C3)C1)C2` [Saxagliptin], the “reduction in cell viability” value was < 0%.

On to `COc1ccc(-c2nc3cc(C4=NNC(=O)CC4C)ccc3[nH]2)cc1` (stereo not drawn) [Pimobendan hydrochloride], for which the “reduction in cell viability” value was < 0%.

As for `COc1ccc(-c2ccc3c(N4CCOC[C@@H]4C)nc(N4CCOC[C@@H]4C)nc3n2)cc1CO`, the “reduction in cell viability” value came out at 64.1%.

As for `CC[C@H](CC#N)OC(=O)N[C@@H](C)c1cccc(NC(=O)Nc2ccc(-c3cnco3)c(OC)c2)c1`, the “reduction in cell viability” value was determined as 53%.

For the molecule `Oc1ccc(-c2nc(-c3ccc(F)cc3)c(-c3ccncc3)[nH]2)cc1`, the “reduction in cell viability” value was < 0%.

In the case of `Fc1cc(-c2cccc3ncc(-c4cnn(C5CCNCC5)c4)nc23)cc(F)c1CN1CCOCC1`, the “reduction in cell viability” value was < 0%.

On to `c1ccc(-c2oc3ncnc(NC[C@@H]4CCCO4)c3c2-c2ccccc2)cc1`, for which the “reduction in cell viability” value is 13%.
